Measurements taken from PubChem BioAssay AID2685 (National Center for Advancing Translational Sciences (NCATS), 2010).
Screen size: about 320,000 compounds; about 2,100 (0.66%) were called active. The inconclusive results got no clear call from the source; some entries with a clear call stand among them for comparison. The call rests on the fitted dose curve; in most records, active means well fitted inhibition curve with a large enough effect in the signal ratio, with a control signal flat (not every such curve was filed as active); inconclusive means small, poorly fitted or top-dose-only effect, or effect the other way, or a change in a side signal; inactive means flat fitted curve, though single readings scatter; the % refers to the signal ratio. Potencies beside an inconclusive call are fits to weak or partial responses and may not hold up.

Assay: qHTS Assay for Lipid Storage Modulators in Drosophila S3 Cells
Details: BODIPY lipid droplet fluorescence, 18-24 h, cells fed with added oleic acid; lipid storage change, negative = inhibition: at 46.1 µM (top of the series) unless noted
Summary of the method: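 Laser-scanning cytometry quantifies lipid droplet accumulation (500–530 nm total intensity; droplet/cell object ratio) in oleic acid-fed (400 uM added) Drosophila S3 cells treated with a concentration series. 20 uM Triacsin C defined 100% inhibition.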
On the % scale 0 is the no-effect control and ±100 the full control effect; potency means the concentration at half of the fitted maximal effect.

Structure (SMILES) | lipid storage change, negative = inhibition | Potency
Cc1cc(C(=O)OCC(=O)N(CC(C)C)c2c(N)n(Cc3ccccc3)c(=O)[nH]c2=O)c2ccccc2n1 | inconclusive: -13.9% | –
CC1=C(C(=O)OCc2ccc3c(c2)OCO3)C(c2cccc([N+](=O)[O-])c2)NC(=O)N1 (centres undefined) | inconclusive: 70.6% | –
CC1CCN(C(=O)c2ccc(Br)c(S(=O)(=O)N3CCOCC3)c2)CC1 | inconclusive: -15.9% | –
CN(CC(=O)Nc1ccc(F)cc1)C(=O)c1ccc2ccccc2n1 | inconclusive | –
COC(=O)c1nc2cc3c(cc2c(C)c1C(=O)OC)OCO3 | inconclusive: 7.55% | –
CCC(C(=O)OC)n1cnc2c(nnn2-c2ccccc2)c1=O (centres undefined) | inconclusive: 32.8% | –
COc1ccc(C(=O)N(c2ccccn2)C2CCCCC2)c(OC)c1 | inconclusive: 15% | –
CCCCn1c(N)c(N(CC(C)C)C(=O)C2CCN(S(=O)(=O)c3ccc(Cl)cc3)CC2)c(=O)[nH]c1=O | inconclusive | –
NC(=O)CCN1CCC(c2nc3ccccc3s2)CC1 | – | inconclusive: 29.1 µM [activator, single point]
CC(C)=CCC(C)(C)C1OCCN1C(=O)c1ccccc1 (centres undefined) | – | inconclusive: 1.46 µM [falling, partial curve, poor fit]
COc1ccccc1-n1c(=O)[nH]c2c(C(N)=O)nc(CC(C)C)nc21 | – | inconclusive: 0.411 µM [falling, partial curve]
O=C(Nc1nc(-c2ccccn2)cs1)c1ccc(Br)s1 | – | inconclusive: 2.59 µM [activator, full curve]
CC1(C(=O)O)CC(C)(C(=O)O)CC(C)(C(=O)O)C1 (centres undefined) | inconclusive: -36.3% | –
COc1ccc(OCC(=O)N2CCN(S(=O)(=O)c3ccccc3[N+](=O)[O-])CC2)cc1 | inconclusive: 33.7% | –
COc1ccc(NC(=O)c2ccccc2N2C(=O)C3C4C=CC(C5CC45)C3C2=O)c(OC)c1 (centres undefined) | inactive | –
CCN(CC(=O)Nc1c(F)cccc1F)C(=O)c1ccc(OCc2c(C)noc2C)cc1 | inconclusive: -21.1% | –
CCC(=O)Nc1sc2c(c1C(=O)OC)CCN(Cc1ccccc1)C2 | – | inconclusive: 32.6 µM [falling, single point]
COc1cccc(C(CNC(=O)C2CCN(C(=O)Nc3ccccc3)CC2)N(C)C)c1 (centres undefined) | inconclusive: -23.3% | –
COCCNC(=O)C1CCN(Cc2cccc(OCc3ccccc3)c2)CC1 | – | inconclusive: 29.1 µM [activator, single point]
Cc1ccc(Cn2nc(C)c(NC(=O)CCCn3nc([N+](=O)[O-])c(Cl)c3C)c2C)cc1 | – | active: 8.2 µM
Cc1cccc(N(C)C(=O)c2cc(S(=O)(=O)N3CCCCC3)c[nH]2)c1 | inconclusive: 51% | –
O=C(CSc1n[nH]c(-c2ccccn2)n1)Nc1ccccc1 | inconclusive: 99.6% | –
COc1cccc2sc(NNC(=O)COc3ccccc3)nc12 | inactive: -1.29% [at 9.22 µM] | –
COCCn1c(C)cc(C(=O)CSc2nncn2-c2ccccc2)c1C | inconclusive: 22.7% | –
Cc1ccc(C(=O)Nc2ccc(S(=O)(=O)N3CCCC3)cc2)o1 | inconclusive: 33.9% | –

Structure (SMILES) | lipid storage change, negative = inhibition | Potency
CC(C(=O)N(C)Cc1cccc(F)c1)N1CCN(S(=O)(=O)c2ccc3c(c2)OCCCO3)CC1 (centres undefined) | – | inconclusive: 6.51 µM [activator, single point]
Nc1ccc(-c2nc3ncccc3o2)c(Cl)c1 | inconclusive: -6.87% | –
O=C(N/N=C/c1coc2ccc(Cl)cc2c1=O)c1ccncc1 | inconclusive: 47% | –
CC(=O)Nc1ccc(NC(=O)CN(c2cccc(C(C)=O)c2)S(C)(=O)=O)cc1 | inconclusive: -6.63% | –
CCCC/C(O)=C1\C(=O)CC(C)(C)CC1=Nc1ccc(OC)cc1 | inconclusive: 4.49% | –
O=C(CNC(=O)C12CC3CC(CC(C3)C1)C2)N/N=C\c1ccccn1 | – | inconclusive: 0.92 µM [activator, single point]
O=C(c1ccco1)N1CCN(c2nc(C(F)(F)F)nc3c2nnn3Cc2ccccc2)CC1 | inconclusive: -20% | –
CC1=C(C(=O)Nc2ccccc2C)C(c2ccc(C)o2)C2=C(CCCC2=O)N1 (centres undefined) | – | inconclusive: 0.731 µM [activator, full curve, poor fit]
O=C(NCC(c1ccco1)N1CCc2ccccc21)C(=O)Nc1ccc(F)cc1F (centres undefined) | inconclusive: 30.3% | –
CC(=O)N1CCN(CC(=O)Nc2ccccc2Sc2ccccc2)CC1 | inconclusive: 5.04% | –
O=[N+]([O-])c1ccc2nc(NS(=O)(=O)c3ccc(Cl)cc3)sc2c1 | – | inconclusive: 29.1 µM [activator, single point]
O=C(NCc1ccc(F)cc1)c1cccc2c1C(=O)c1ccc(N3CCOCC3)cc1S2(=O)=O | inconclusive: 2.84% | –
CCCCn1c(N)c(N(CC(C)C)C(=O)c2ccc(Cl)c(S(=O)(=O)N3CCCC3)c2)c(=O)[nH]c1=O | inconclusive | –
CCCCC(CC)CNC(=O)/C=C/c1ccc(F)cc1 (centres undefined) | inconclusive: 6.98% | –
COc1ccc(NC(=O)CSc2nc3ccccc3nc2N2CCCC2)cc1 | inactive | –
COc1ccc([N+](=O)[O-])cc1NS(=O)(=O)c1ccc(C(=O)N2CCCC2)cc1 | inconclusive: 20.1% | –
COc1ccc(OC)c(N(C)S(=O)(=O)c2cc3c(cc2C)NC(=O)CO3)c1 | inconclusive: -1.14% | –
Cn1cccc1C(=O)NC(=O)COC(=O)CC12CC3CC(CC(Br)(C3)C1)C2 | – | active: 7.31 µM
CCOC(=O)N1CCN(C(=O)CS(=O)(=O)c2cn(Cc3ccc(Cl)cc3)c3ccccc23)CC1 | – | inconclusive: 6.51 µM [activator, partial curve, poor fit]
O=C(NC1CCCCC1)C(c1ccccc1)N(Cc1cccnc1)C(=O)c1csnn1 (centres undefined) | – | inconclusive: 29.1 µM [activator, single point]
CCN(CC)c1ccc(/C=N/NC(=S)NCc2ccccc2)cc1 | inconclusive: 106% | –
CCC(=O)C(C#N)(c1ccc(OC)c(OC)c1)C(C)C (centres undefined) | – | inconclusive: 1.16 µM [activator, single point]
Nc1ccccc1C(=O)NCc1ccco1 | inconclusive: 66.3% | –
COc1cc(C2C(C(=O)c3ccco3)=C(O)C(=O)N2c2cc(C)on2)ccc1OCc1ccccc1 (centres undefined) | inconclusive: 4.53% | –
CCOCCOC(=O)c1[nH]c2c(c1C)C(=O)CC(c1cc(OC)c(OC)c(OC)c1)C2 (centres undefined) | – | inconclusive: 29.1 µM [cytotoxic, single point]

Structure (SMILES) | lipid storage change, negative = inhibition | Potency
CCc1nnc(NS(=O)(=O)c2ccccc2)s1 | inconclusive: -9.23% | –
CC(C)n1c(-c2ccccc2F)n[nH]c1=S | inconclusive: 11% | –
Cc1cc(C)nc(NC(=O)Nc2ccc(F)cc2F)n1 | – | inconclusive: 0.0041 µM [rising, full curve, poor fit]
COc1ccc(/C=C(/C(=O)c2ccc(Cl)cc2Cl)n2cncn2)cc1 | – | inconclusive: 4.61 µM [falling, full curve, poor fit]
COc1ccc(CCNC(=O)Nc2ccc([N+](=O)[O-])cc2)cc1OC | inconclusive: 45.6% | –
CN1C(=O)C(=O)N(CC(=O)N2CCc3ccccc32)C1=O | inconclusive: -3.48% | –
CCCCNC(=O)c1onc(CSc2ccc(F)c(F)c2)c1C(=O)O | inconclusive: -46.9% | –
Cc1c(OC(C)C(=O)NCCCN2CCOCC2)ccc2c1oc(=O)c1ccccc12 (centres undefined) | inconclusive: 44.1% | –
Cc1ccc(-c2nc(CS(=O)CC(=O)NCCN3CCOCC3)c(C)o2)cc1 (centres undefined) | – | inconclusive: 14.6 µM [activator, partial curve]
CCOC(=O)N1CCC(N2Cc3cccc(C(=O)NCc4ccccn4)c3C2=O)CC1 | – | inconclusive: 0.103 µM [activator, full curve, poor fit]
CCN(CC(=O)Nc1c(F)cccc1F)C(=O)CC1CCCCC1 | inconclusive: -9.94% | –
Cn1c(=O)c2c(nc(N3CCCCCC3)n2CC(O)COc2ccccc2)n(C)c1=O (centres undefined) | inconclusive: 7.75% | –
O=Cc1ccccc1-c1cn(CCCOCc2ccccc2)nn1 | inconclusive: -27% | –
O=C(Nc1ccc(Oc2ncnc3cc(Cl)ccc23)nc1)Nc1cccc(C(F)(F)F)c1 | inactive | –
COc1ccc(NC(=O)CSc2nc3ccccc3c(=O)n2CCNC(C)=O)c(OC)c1 | inconclusive: -23.6% | –
CCCN(CCC)CCN1C(=O)C2C(C(=O)Nc3ccc(C)cc3)C3C=CC2(O3)C1C(=O)NC1CCCCC1 (centres undefined) | – | inconclusive: 6.51 µM [activator, single point]
CCN(CCN1CCCC1)C(=O)c1cc(COc2ccccc2SC)on1 | – | inconclusive: 6.51 µM [activator, single point]
Cc1noc(NS(=O)(=O)c2ccc(NC(=O)CSc3n[nH]c(-c4ccccc4)n3)cc2)c1C | – | inconclusive: 16.4 µM [activator, single point]
O=C(CN1c2ccccc2Sc2ccccc21)NNC(=O)Nc1ccc(Cl)cc1 | inconclusive: -53.9% | –
CCOC(=O)N1CCC(n2c(SCC(=O)N3CCC(C)CC3)nc3ccccc3c2=O)CC1 | inconclusive: -22.5% | –
CCN(CC(=O)Nc1c(F)cccc1F)C(=O)C1=COCCO1 | inconclusive: -4% | –
Cn1c(/N=C/c2ccc3c(c2)OCO3)nc2ccccc21 | – | inconclusive: 0.103 µM [falling, single point]
CC1CCCC(NC(=O)COC(=O)Cc2ccc(Br)cc2)C1C (centres undefined) | inconclusive: -76.5% | –
Cc1c(Cl)cccc1NC(=O)COC(=O)Cc1ccsc1 | – | inconclusive: 29.1 µM [falling, single point]

Given with tabs: part of the list above
Structure (SMILES)	lipid storage change, negative = inhibition	Potency
Cn1c(=O)c2c(nc(N3CCCCCC3)n2CC(O)COc2ccccc2)n(C)c1=O (centres undefined)	inconclusive: 7.75%	–
O=Cc1ccccc1-c1cn(CCCOCc2ccccc2)nn1	inconclusive: -27%	–
O=C(Nc1ccc(Oc2ncnc3cc(Cl)ccc23)nc1)Nc1cccc(C(F)(F)F)c1	inactive	–
